Out of some 360,000 compounds screened, about 10,000 (2.8%) were called active. The inconclusive results got no clear call from the source; some entries with a clear call stand among them for comparison. The call rests on the fitted dose curve; in most records, active means well fitted inhibition curve with a large enough effect; inconclusive means small, poorly fitted or top-dose-only effect; inactive means flat fitted curve, though single readings scatter. Potencies of inconclusive entries are doubtful fits and often do not repeat.
Molecular target: Serine/threonine-protein kinase PLK1 (Homo sapiens) (UniProt P53350)
Assay: qHTS for Inhibitors of PLK1-PDB (polo-like kinase 1 - polo-box domain): Primary Screen; further: nearly all actives have a fitted effect of over 65% in size; on max response, negative = inhibition: series mostly up to about 57 µM
Conditions: Plk1 PBD binding of FITC phosphopeptide, fluorescence polarization
Excerpt: The polo-like kinase 1 (Plk1) is a member of a conserved subfamily of serine / threonine protein kinases that plays a pivotal roles in cell proliferation. It has a C-terminal non-catalytic region called the polo-box domain (PBD) that plays a crucial role in the subcellular localization of the Plk1. […] Furthermore, depletion of the overexpressed Plk1 by RNAi efficiently induces apoptotic cell death in cancer and reduces tumor growth in mouse xenograft models. Thus, targeting Plk1 is an appealing strategy for anti-cancer therapy. Therefore, this project aimed to screen the Molecular Libraries Small Molecule Repository (MLSMR) using a novel approach to find inhibitors that target the Plk1 PBD instead of the conventional N-terminal catalytic domain. This project employed a fluorescence polarization (FP) assay using a FITC-conjugated phospho-9-mer (p-9-mer) peptide and purified human Plk1 PBD protein. The identified small molecule inhibitors of Plk1 PBD can then further be developed into useful tools for biomedical and clinical research that complements or replaces current relevant disease therapy. NIH Chemical Genomics Center [NCGC] NIH Molecular Libraries Probe Centers Network [MLPCN] MLPCN Grant: MH100728 Assay Submitter (PI): Kyung Lee, NCI
Four microliter of 25 nM FITC-p-9-mer + 60 nM Plk1 PBD in buffer solution (final concentrations 25 nM and 60 nM respectively) or 4 uL of 25 nM FITC-p-9-mer (final concentration 25 nM) in buffer will be dispensed into a 1,536 Greiner medium-binding black solid plate. Small molecules at final concentrations of 18 nM to 57 uM and positive control phospho-9-mer (sequence: Ac-PPLHSpTAI-NH2) at final concentrations 26 nM to 57 uM and phospho-13-mer (sequence: Ac-[…]pTAI-NH2) at final concentrations of 1 nM to 2.3 uM will be pin-transferred (23 nL) to the plate via a Kalypsys pin-tool robotics equipped with a 1,536-pin array. The reaction plate will be centrifuged for 1 min at 1000 rpm and incubated at room temperature for 10 min. The FITC fluorescence signals will be read using the PerkinElmer ViewLux plate reader at 480 / 20 nm excitation and 540 / 20 nm S and P polarization emission wavelengths. Reagent bottles will be kept submerged into 4 °C recirculating chiller bath and all liquid lines will be covered with aluminum foil to minimize degradation. Library plates will be screened starting from the lowest to the highest concentrations to minimize compound carryover. Vehicle only plates, with DMSO being pin-transferred instead of compound solutions, will be included regularly throughout the screen to record any systematic shifts in assay signal.
On the % scale 0 is the no-effect control and ±100 the full control effect; potency means the concentration at half of the fitted maximal effect.

Amino acid sequences for entries named in this document (tags omitted).
UniProt P53350, whole entry, looked up: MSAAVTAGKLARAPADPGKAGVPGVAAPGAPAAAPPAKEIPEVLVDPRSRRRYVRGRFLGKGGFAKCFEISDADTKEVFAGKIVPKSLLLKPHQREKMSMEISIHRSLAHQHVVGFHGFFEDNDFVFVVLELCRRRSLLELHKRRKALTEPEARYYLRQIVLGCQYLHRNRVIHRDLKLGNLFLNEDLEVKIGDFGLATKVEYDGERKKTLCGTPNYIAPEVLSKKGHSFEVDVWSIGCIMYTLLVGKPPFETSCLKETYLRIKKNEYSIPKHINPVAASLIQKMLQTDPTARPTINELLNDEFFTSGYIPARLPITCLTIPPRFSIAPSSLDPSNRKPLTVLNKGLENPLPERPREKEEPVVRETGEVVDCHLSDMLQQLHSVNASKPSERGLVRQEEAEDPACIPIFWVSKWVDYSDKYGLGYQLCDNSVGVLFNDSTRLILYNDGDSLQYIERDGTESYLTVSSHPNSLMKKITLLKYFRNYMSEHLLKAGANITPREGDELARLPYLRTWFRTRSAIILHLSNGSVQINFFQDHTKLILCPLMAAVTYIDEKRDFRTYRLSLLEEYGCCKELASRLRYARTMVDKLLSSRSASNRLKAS

SMILES	max response, negative = inhibition	Potency
NC(=O)COC(=O)CN1C(=O)C2CCCCC2C1=O (stereo not given)	inactive: 2.47%	
COc1ccc(-c2cc(C(F)F)n3ncc(C(=O)Nc4cccc(S(=O)(=O)N5CCOCC5)c4)c3n2)cc1		inconclusive: 26.7 µM [inhibitor, partial curve]
CSC(SC)=C(C#N)C(=O)c1ccccc1		active: 10.6 µM
Cc1ccc(C(=O)OCC(=O)NCc2cccs2)cc1		inconclusive: 6.7 µM [inhibitor, single point]
COC(=O)c1sc(-c2ccc(C(C)(C)C)cc2)cc1NC(=O)CCC(=O)O		inconclusive: 23.8 µM [inhibitor, single point]
COc1ccc(Nc2oc(COc3ccccc3OC)nc2C#N)cc1		inconclusive: 4.74 µM [inhibitor, full curve]
C=CCOc1cccc(C2C(C(=O)c3cc4ccccc4o3)=C(O)C(=O)N2c2cc(C)on2)c1 (stereo not given)		inconclusive: 23.8 µM [inhibitor, single point]
CSc1nc(C)cc(SCC(=O)N/N=C/c2ccccc2)n1	inactive: -6.77%	
COc1ccc(C2CC(=O)c3sc(NC(C)=O)nc3C2)cc1 (stereo not given)		inconclusive: 29.9 µM [inhibitor, partial curve]
CCn1c(/C=N/c2nc3ccccc3n2C)nc2ccccc21		inconclusive: 16.8 µM [inhibitor, partial curve]
c1cncc(-c2nc3cc4ccccc4cc3[nH]2)c1		inconclusive: 37.7 µM [inhibitor, single point]
Cc1cc(=O)oc2cc3c(cc12)OCCO3		inconclusive: 21.2 µM [inhibitor, single point]
Cc1ccc(C)c(NC(=O)CCC(=O)NNS(=O)(=O)c2ccc(Cl)cc2)c1		inconclusive: 23.8 µM [inhibitor, single point]
CCOc1ccc(N=Nc2ccc(O)c3ncccc23)cc1	inactive: -3.58%	
COc1ccc(OC)c(-c2c3c([nH]c(=S)c2C#N)CCCC3)c1		active: 26.7 µM
CCN(CC)c1ccc2cc(C(=O)NNC(=O)c3ccc(S(=O)(=O)N4CCCCC4)cc3)c(=O)oc2c1		inconclusive: 37.7 µM [inhibitor, single point]
C=CCSc1nc2c(c(=O)[nH]c(=O)n2C)n1CC		active: 23.8 µM
Cn1c(Cc2ccccc2)nnc1SCC(=O)c1ccc(Br)s1		active: 21.2 µM

SMILES	max response, negative = inhibition	Potency
CC1=C(C)/C(=N\OS(=O)(=O)c2ccc(C)cc2)C=CC1=O		inconclusive: 21.2 µM [inhibitor, partial curve]
CCC(C)NCCCOc1ccc([N+](=O)[O-])cc1 (stereo not given)	inactive: -6.15%	
COc1ccc(NC(=O)CSc2ccc3c(c2)OCCO3)cc1		inconclusive: 26.7 µM [inhibitor, partial curve]
Cc1ccc(C(C[N+](=O)[O-])n2nc(C)cc2C)cc1 (stereo not given)		active: 16.8 µM
C/C=C\C=C/C(=O)Nc1cccc(C2=NOC3(C2)C[C@@H](C(N)=O)N(C(=O)/C=C/CC)C3)c1 (stereo not given in full)		inconclusive: 29.9 µM [inhibitor, partial curve]
CCS(=O)(=O)Nc1ccc(C2=NN(C(=O)c3ccco3)C(c3ccc(Cl)o3)C2)cc1 (stereo not given)	inactive: -13.3%	
COc1ccc(NC(=O)CSc2ccc(-c3sc(C)nc3C)nn2)cc1OC	inactive: -1.97%	
COc1ccc(C(=O)Nc2ccc3c(c2)OCO3)cc1S(=O)(=O)N1CCOCC1	inactive: 7.93%	
COc1cc(N)ccc1NC(=O)c1cccs1	inactive: -8.47%	
C/C(=N\NC(=S)NC1CCCCC1)c1ccc(O)cc1		active: 16.8 µM
CCCCOc1ccc(C(=S)N2CCC(C(N)=O)CC2)cc1		inconclusive: 26.7 µM [inhibitor, partial curve]
COC(CNS(=O)(=O)c1cc2c3c(c1)CCN3C(=O)CC2)OC		active: 21.2 µM
CC(=O)Nc1sc(N/N=C\c2ccco2)nc1-c1cccs1		inconclusive: 29.9 µM [inhibitor, single point]
CN1CCN(C(=O)C2=C[C@H](C3CC3)C[C@H](OCc3ccc(CO)cc3)O2)CC1		inconclusive: 23.8 µM [inhibitor, single point]
O=C(CSc1cccc2cccnc12)Nc1cc(C(=O)O)cc(C(=O)O)c1		inconclusive: 26.7 µM [inhibitor, partial curve]
CN=C(Nc1cccc(Cl)c1)SC1CC(=O)N(c2ccc(OC)cc2)C1=O (stereo not given)		inconclusive: 37.7 µM [inhibitor, single point]
Cc1cccc(Oc2c([N+](=O)[O-])c(=O)n(C)c3ccccc23)c1		inconclusive: 18.9 µM [inhibitor, partial curve]

An excerpt from above in order of molar mass, low to high.
SMILES	max response, negative = inhibition	Potency
CCC(C)NCCCOc1ccc([N+](=O)[O-])cc1 (stereo not given)	inactive: -6.15%	
COc1ccc(C(=O)Nc2ccc3c(c2)OCO3)cc1S(=O)(=O)N1CCOCC1	inactive: 7.93%	
CCS(=O)(=O)Nc1ccc(C2=NN(C(=O)c3ccco3)C(c3ccc(Cl)o3)C2)cc1 (stereo not given)	inactive: -13.3%	

Reference: PubChem BioAssay AID720504 (National Center for Advancing Translational Sciences (NCATS), 2013)
